Reference: the supplement of paper PMC10338343
± gives the standard deviation. Only a part is listed here, and it is no random draw. Many of these values have a large error. This is one part of the list.

tested on: MILI (PIWIL2) piRISC loaded with L1MC piRNA (26 nt); assay: pre-steady-state target cleavage rate (min^-1); higher = faster piRNA-guided slicing of the target; settings: guide: L1MC piRNA 5'p-UAACUAAAUACUAUGCAAGCUGUAGG; auxiliary factor: 500 nM mouse GTSF1
How it was run: (§1)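 A transcribed, DNA-blocked target RNA library (0.1 nM) and 1 nM active affinity-purified piRISC bearing one synthetic guide were incubated in HEPES–potassium acetate buffer at 33 °C for 0–8 or 0–960 min, either with or without 500 nM GTSF1 partner protein. Uncleaved targets were sequenced, normalised to depth and to weakly complementary targets, and pooled over three trials, with k3 capped at 0.0001 min^-1. The pre-steady-state cleavage rate was derived with a burst-and-steady-state fit.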

Sequence | pre-steady-state target cleavage rate
UCCUGGUACCGCUUGCAUAGUAUUUAGUUA | 0.293 ± 0.037
UCCUGGUACAGCUUGAAUAGUAUUUAGUUA | 0.302 ± 0.055
UCCUGGUACAGGUUGGAUAGUAUUUAGUUA | 0.303 ± 0.043
UCCUCCUAUCAGCUUGCAUAGUAUUUAGUUA | 0.322 ± 0.015
UCCUGGAUCAGCUUGCAUGGUAUUUAGUUA | 0.285 ± 0.025
UCCUGGUACAGCUUGCAUAGUAUUAUAGUUA | 0.299 ± 0.034
UCCUGGUACAGGUUGCAUAGUAUUAAGUUA | 0.326 ± 0.072

same assay, conditions: guide: L1MC piRNA 5'p-UAACUAAAUACUAUGCAAGCUGUAGG; auxiliary factor: none (no GTSF1)

Sequence | pre-steady-state target cleavage rate
UCCUGGAACAGCUUGCAUACUAUUUAGAUA | 0.000806 ± 0.0075
UCCUCCUUGUGCUUGCAUAGUAUUUAGAAA | 0.000974 ± 0.0041
UCCUGGAUGUCGUUGCAUAGAAUUAAGUUA | 0.00084 ± 0.0066
UCCUGGAUGUCGAUCCAUAGUUUUUAGUUA | 0.000197 ± 0.027
UCCUGGAACAGCUUGCAUACUAUUUACUUA | 0.00103 ± 0.0055
UCCUGGAUCAGCUAGCAUAGUAUUUACUUA | 0.00263 ± 0.0029
UCCUGGUACAGCUUGGAUUGUAUUUAGUUA | 0.00312 ± 0.0033
UCCUGGAUCAGCUUGCAUACUAUUAAGUUA | 0.00106 ± 0.0062
UCCUGGAUCAGCUUGCAUAGUAUUUAAUUA | 0.00199 ± 0.0035
UCCUGCUUCAGCUUGCAUAGUAUUUACAAA | 0.00169 ± 0.0027
UCCUGGAUCACCUUGCAUAGUAUAUAGUUA | 0.00245 ± 0.0045
UCCUGCUACAGCAACCAUAGUAUUUUCAAA | 0.00051 ± 0.017
UCCUGGUACUCCUUGCAUAGUAUUUAGUUA | 0.00304 ± 0.0036
UCCUGGUACAGCUUGCAUAGAAUUUUGUUA | 0.00193 ± 0.0064
UCCUCCUAGAGCUUGCAUAGUAUUUACUUA | 0.00243 ± 0.0028
UCCUGGAUGUCGUUGCAUACUAUUUUGUUA | 0.000326 ± 0.019
UCCUGGUACAGCUUGCAUAGUAAUUAGUAA | 0.00204 ± 0.0042

Sequence | pre-steady-state target cleavage rate
UCCUGCUACAGCUUGCAUAGAAUUUAGAAA | 0.000878 ± 0.0063
UCCUGGAUCAGCUUGGAUACUAUUUAGUUA | 0.00218 ± 0.0027
UCCUGGAUGUCGAACCAUAGUAUUAAGAUA | 0.000137 ± 0.033
UCCUGGUACAGCUUGCAAUGUAUUUAGUAA | 0.00268 ± 0.0034
UCCUGGAUGUCGAUGCAUUGUAUUAAGUUA | 0.000314 ± 0.016
UCCUGGAUGUGCUUGCAUAGUUAAAUCAAA [g10:g20:cont:t1A] | 0.000245 ± 0.025
UCCUGCUACAGCUUGCAUACAAUUUACAAA | 0.000228 ± 0.012
UCCUGGAUGUCGAAGCGUAGUAUUUAGUUA | 0.00141 ± 0.0042
UCCUGGAUCAGCUUGCAUAGUAUAUACUUA | 0.00182 ± 0.0029
UCCUGGAUGUCGAAGCAUCAGUAUUUAGUUA | 0.000453 ± 0.013
UCCUGGAACAGCUUGCAUAGUAUUUUCUUA | 0.00123 ± 0.0052
UCCUGGAUGUCGAACCAUAGUAUUUAGUGA | 0.000299 ± 0.01
UCCUGCUACAGCUUGCAAAGUAUAUAGUUA | 0.00266 ± 0.0029
UCCUGGAUCAGCUUGCAUACUAUUUAGAUA | 0.000787 ± 0.0075
UCCUGGAACAGCUUGCAAUCUAUUUAGUUA | 0.00133 ± 0.0048
UCCUGGAUGUCGAACGUAAGUAUAUUGUUA | 0.000207 ± 0.021

tested on: EfPiwi piRISC loaded with L1MC piRNA (26 nt); assay: pre-steady-state target cleavage rate (min^-1); guide: L1MC piRNA 5'p-UAACUAAAUACUAUGCAAGCUGUAGG; MIWI and MILI are mouse PIWI proteins and EfPiwi is from a freshwater sponge; tags in brackets are library labels; higher = faster piRNA-guided slicing of the target; settings: auxiliary factor: 500 nM Ephydatia muelleri Gtsf1
How it was run: as §1

Sequence | pre-steady-state target cleavage rate
UCCUGGAACAGCUUGCAUACUAUUUAGAUA | 0.00312 ± 0.0022
UCCUCCUUGUGCUUGCAUAGUAUUUAGAAA | 0.00387 ± 0.0022
UCCUGGAUGUCGUUGCAUAGAAUUAAGUUA | 0.000692 ± 0.0083
UCCUGGAUGUCGAUCCAUAGUUUUUAGUUA | 0.000108 ± 0.027
UCCUGGAACAGCUUGCAUACUAUUUACUUA | 0.00304 ± 0.0038
UCCUGGAUCAGCUAGCAUAGUAUUUACUUA | 0.00117 ± 0.004
UCCUGGUACAGCUUGGAUUGUAUUUAGUUA | 0.000856 ± 0.0078
UCCUGGAUCAGCUUGCAUACUAUUAAGUUA | 0.00253 ± 0.0023
UCCUGGAUCAGCUUGCAUAGUAUUUAAUUA | 0.00916 ± 0.0034
UCCUGGAUCACCUUGCAUAGUAUAUAGUUA | 0.00229 ± 0.007
UCCUGCUACAGCAACCAUAGUAUUUUCAAA | 0.000574 ± 0.0094
UCCUGGUACUCCUUGCAUAGUAUUUAGUUA | 0.00282 ± 0.0031
UCCUGGUACAGCUUGCAUAGAAUUUUGUUA | 0.00212 ± 0.0026
UCCUCCUAGAGCUUGCAUAGUAUUUACUUA | 0.00356 ± 0.0033
UCCUGGAUGUCGUUGCAUACUAUUUUGUUA | 0.000162 ± 0.025
UCCUGGUACAGCUUGCAUAGUAAUUAGUAA | 0.00568 ± 0.0029
UCCUGGAUCAGCUUGGAUACUAUUUAGUUA | 0.00164 ± 0.0026

Sequence | pre-steady-state target cleavage rate
UCCUGGAUGUCGAACCAUAGUAUUAAGAUA | 0.000158 ± 0.028
UCCUGGUACAGCUUGCAAUGUAUUUAGUAA | 0.000953 ± 0.0057
UCCUGGAUGUCGAUGCAUUGUAUUAAGUUA | 0.000122 ± 0.027
UCCUCCUAUCAGCUUGCAUAGUAUUUAGUUA | 0.0677 ± 0.018
UCCUGGAUGUGCUUGCAUAGUUAAAUCAAA [g10:g20:cont:t1A] | 0.000409 ± 0.011
UCCUGCUACAGCUUGCAUACAAUUUACAAA | 0.00101 ± 0.009
UCCUGGAUGUCGAAGCGUAGUAUUUAGUUA | 0.00123 ± 0.0066
UCCUGGAUCAGCUUGCAUAGUAUAUACUUA | 0.00211 ± 0.0049
UCCUGGAUGUCGAAGCAUCAGUAUUUAGUUA | 0.000703 ± 0.013
UCCUGGAACAGCUUGCAUAGUAUUUUCUUA | 0.00388 ± 0.0027
UCCUGGAUCAGCUUGCAUGGUAUUUAGUUA | 0.0193 ± 0.0038
UCCUGCUACAGCUUGCAAAGUAUAUAGUUA | 0.00379 ± 0.0026
UCCUGGAUCAGCUUGCAUACUAUUUAGAUA | 0.00158 ± 0.0036
UCCUGGUACAGCUUGCAUAGUAUUAUAGUUA | 0.00555 ± 0.0023
UCCUGGAACAGCUUGCAAUCUAUUUAGUUA | 0.00116 ± 0.0049
UCCUGGAUGUCGAACGUAAGUAUAUUGUUA | 0.000339 ± 0.017
